Here are results for one molecule from publication PMC8277862.

No constants are given. Whether binding was seen depends on the method and setting. Binding seen in cells or lysates may run through a third protein. Some results given as binding are weak or reduced against the parent protein; the word gives no strength.

The target of the assay is T1, Mesh (D. melanogaster (endogenous in midgut of line RAL-399)) (UniProt Q0KHY3).
T1 sequence: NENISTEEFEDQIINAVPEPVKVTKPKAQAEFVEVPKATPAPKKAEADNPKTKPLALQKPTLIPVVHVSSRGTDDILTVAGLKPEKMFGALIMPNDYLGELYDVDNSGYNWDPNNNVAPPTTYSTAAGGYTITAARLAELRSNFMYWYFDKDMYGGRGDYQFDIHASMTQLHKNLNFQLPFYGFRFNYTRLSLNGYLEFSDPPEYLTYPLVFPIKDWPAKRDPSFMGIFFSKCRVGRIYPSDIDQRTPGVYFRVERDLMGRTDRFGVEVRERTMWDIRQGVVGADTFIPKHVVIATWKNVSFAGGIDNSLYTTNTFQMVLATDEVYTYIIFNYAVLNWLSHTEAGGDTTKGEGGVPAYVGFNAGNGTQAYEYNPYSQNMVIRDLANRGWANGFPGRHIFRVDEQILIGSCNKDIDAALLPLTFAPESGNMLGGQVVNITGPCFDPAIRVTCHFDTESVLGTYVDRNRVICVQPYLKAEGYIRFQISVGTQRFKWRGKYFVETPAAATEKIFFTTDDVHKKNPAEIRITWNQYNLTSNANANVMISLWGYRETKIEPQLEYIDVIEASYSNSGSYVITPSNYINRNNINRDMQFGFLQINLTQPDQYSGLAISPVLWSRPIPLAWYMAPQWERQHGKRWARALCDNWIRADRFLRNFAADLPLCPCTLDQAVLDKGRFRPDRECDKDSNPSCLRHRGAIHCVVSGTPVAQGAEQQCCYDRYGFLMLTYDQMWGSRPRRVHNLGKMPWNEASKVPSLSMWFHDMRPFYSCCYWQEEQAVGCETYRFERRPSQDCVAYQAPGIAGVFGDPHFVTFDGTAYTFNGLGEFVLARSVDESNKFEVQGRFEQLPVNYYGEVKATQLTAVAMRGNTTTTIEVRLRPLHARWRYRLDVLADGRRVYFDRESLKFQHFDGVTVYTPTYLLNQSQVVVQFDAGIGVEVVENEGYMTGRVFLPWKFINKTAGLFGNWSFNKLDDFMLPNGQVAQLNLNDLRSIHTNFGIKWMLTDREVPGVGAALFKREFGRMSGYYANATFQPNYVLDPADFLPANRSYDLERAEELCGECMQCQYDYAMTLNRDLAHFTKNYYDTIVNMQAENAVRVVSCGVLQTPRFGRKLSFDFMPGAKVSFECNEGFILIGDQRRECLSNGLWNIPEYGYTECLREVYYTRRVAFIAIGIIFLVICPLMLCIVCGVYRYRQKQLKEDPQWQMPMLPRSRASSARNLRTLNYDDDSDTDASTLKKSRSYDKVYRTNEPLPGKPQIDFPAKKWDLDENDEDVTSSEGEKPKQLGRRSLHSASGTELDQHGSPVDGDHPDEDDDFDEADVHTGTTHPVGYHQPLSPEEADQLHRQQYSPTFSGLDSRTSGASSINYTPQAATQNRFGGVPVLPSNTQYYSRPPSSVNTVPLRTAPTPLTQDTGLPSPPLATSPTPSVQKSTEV
Briefly: co-IP; antibody against Mesh (1:100) and A/G beads, Pierce Crosslink Magnetic IP/Co-IP kit, midgut lysate of line RAL-399 in IP lysis buffer, overnight at 4 °C, five washes; Ssk and Ssk-FB4 in the precipitate quantified by in-gel digestion and PRM-MS.

B1: Ssk (Snakeskin) (protein, UniProt Q9VW87 1-162)
chain: MVSVETVGSIFIKALKLIINLVIIFLYRWGDGGEFLGIGGTWNLNEEKSADAEIVASGVMVGFLIYTGCHTIAFAFGTTKHKGELCDTIMNVVGCIMWIAVGGVALHYWKGYMSDEGFLYVNSERQVGIAMGSLCVIEGALYLLDTVLACIHYSKGDTDYTQ
On to B1, for which the binding entry is given as “binds”.
